Three molecules from PMC4617596 can be followed below.

Protein sequences, listed by entry. Tags and fused reporters are not part of them.
UniProt P27546: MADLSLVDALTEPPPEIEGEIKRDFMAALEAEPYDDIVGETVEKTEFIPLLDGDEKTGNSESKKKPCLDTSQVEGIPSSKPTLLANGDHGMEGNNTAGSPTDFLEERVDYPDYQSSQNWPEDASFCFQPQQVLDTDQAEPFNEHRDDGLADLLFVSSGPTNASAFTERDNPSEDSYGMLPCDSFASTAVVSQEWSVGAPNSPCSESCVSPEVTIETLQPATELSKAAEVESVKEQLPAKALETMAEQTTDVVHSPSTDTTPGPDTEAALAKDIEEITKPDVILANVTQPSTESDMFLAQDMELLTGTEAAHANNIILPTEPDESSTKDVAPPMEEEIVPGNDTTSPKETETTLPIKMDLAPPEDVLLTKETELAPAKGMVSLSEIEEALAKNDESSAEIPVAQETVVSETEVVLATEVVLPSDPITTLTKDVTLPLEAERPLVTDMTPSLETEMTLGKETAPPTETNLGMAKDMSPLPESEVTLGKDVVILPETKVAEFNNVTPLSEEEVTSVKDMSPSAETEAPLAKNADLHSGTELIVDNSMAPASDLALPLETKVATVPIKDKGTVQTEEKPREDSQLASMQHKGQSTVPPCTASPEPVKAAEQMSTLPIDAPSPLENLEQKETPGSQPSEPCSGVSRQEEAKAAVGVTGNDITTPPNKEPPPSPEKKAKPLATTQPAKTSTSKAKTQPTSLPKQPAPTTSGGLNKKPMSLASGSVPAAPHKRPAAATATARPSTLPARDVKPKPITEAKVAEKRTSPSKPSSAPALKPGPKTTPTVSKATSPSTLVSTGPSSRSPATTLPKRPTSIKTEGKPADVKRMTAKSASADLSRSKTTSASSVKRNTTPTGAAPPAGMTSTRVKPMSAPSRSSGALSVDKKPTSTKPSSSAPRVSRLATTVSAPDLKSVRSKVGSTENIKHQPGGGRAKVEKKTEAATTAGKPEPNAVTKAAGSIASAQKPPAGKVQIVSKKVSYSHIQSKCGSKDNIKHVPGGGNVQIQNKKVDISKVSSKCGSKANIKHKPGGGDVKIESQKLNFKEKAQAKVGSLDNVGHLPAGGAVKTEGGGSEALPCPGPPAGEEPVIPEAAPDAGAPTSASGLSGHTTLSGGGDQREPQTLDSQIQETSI
UniProt Q61025: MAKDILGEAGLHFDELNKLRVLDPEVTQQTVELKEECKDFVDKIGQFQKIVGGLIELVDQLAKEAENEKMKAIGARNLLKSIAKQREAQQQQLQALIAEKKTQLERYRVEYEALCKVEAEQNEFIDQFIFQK

Test [1] deals with GFP-MmMap4 (mouse (Mm (so in the source))) (UniProt P27546). As to the kind of experiment: co-IP; HEK293T cells co-expressing Flag-MmIFT54 constructs and GFP-MAP4; lysis in 50 mM Tris-HCl pH 7.5, 150 mM NaCl, 0.5% Triton; precleared lysates immunoprecipitated with anti-GFP antibody on G-protein beads, 3 h at 4 °C; washes with increasing NaCl; western blot with GFP and Flag antibodies.

Test [2] has as its target GFP-MmIft20 (mouse (Mm (so in the source))) (UniProt Q61025). Description: co-IP; HEK293T cells co-transfected with Flag-MmTraf3ip1 constructs and GFP-MmIft20; lysis in 50 mM Tris-HCl pH 7.5, 150 mM NaCl, 0.5% Triton; immunoprecipitation with anti-Flag or anti-GFP antibodies on G-protein beads (which one is not told for this pair), 3 h at 4 °C; washes with increasing NaCl.

Changes are numbered by the printed parent chain. In names and notes the source's numbering stands. Results are given in words; binding and its absence hold for the method and conditions named. In cells and extracts the contact can be indirect. Some results given as binding are weak or reduced against the parent protein; the word gives no strength. Tags and fused reporters may be left off the sequences shown.

B1: Flag-tagged MmIFT54 p.K155* (domain or fragment, UniProt Q149C2 1-154)
chain: MNAAVVRRTQEALGKVIRRPPLTEKLLNKPPFRYLHDIITEVIRITGFMKGLYTDAEMKSENVKDKDAKISFLQKAIDVVMMVSGEPLAAKPARIVAGHEPERTNELLQLIGKCCLSKLSSDEAVKRVLAGDKGDSRGRAQRTSKAQEPNNKSG
As for B1, in test [1], the binding result is listed as “binds”.

B2: Flag-tagged MmIFT54 WT (protein, UniProt Q149C2 1-625)
chain: MNAAVVRRTQEALGKVIRRPPLTEKLLNKPPFRYLHDIITEVIRITGFMKGLYTDAEMKSENVKDKDAKISFLQKAIDVVMMVSGEPLAAKPARIVAGHEPERTNELLQLIGKCCLSKLSSDEAVKRVLAGDKGDSRGRAQRTSKAQEPNNKSGKEEESRIHKEDKRSSEAKERSASAEHKQKEELKEDSKPREKERDKEKAKEADRDRHRDPDRDRNRDGEREKARARAKDRDRNNRDRDREAERDRERDRRSEGGKEKERVKDRDRDRDKGRDRERRKSKNGEHTRDPDREKSRDADKPEKKSSSSGEISRKLSDGSFKDVKAEMEADISVGASRSSTLKPSKRRSKHSLEGDSPSDAEVEAGPAGQDKPEVMENAEVPSELPSSLRRIPRPGSARPAPPRVKRQESTETLVVDRSGSGKTVSSVIIDSQNSDNEDDEQFVVEAAPQLSEIADIDMVPSGELEDEEKHGGLVKKILETKKDYEKLQQSLKPGEKERSLIFESAWKKEKDIVSKEIEKLRVSIQTLCKSALPLGKIMDYIQEDVDAMQNELQLWHSENRQHAEALSQEQSITDSAVEPLKAELSELEQQIRDQQDKICAVKANILKNEEKIQKMVHSINLSSRR
For B2, the binding result in test [2] and in test [1] was “binds” in each case.

B3: Flag-tagged MmIFT54 p.I453R (protein, UniProt Q149C2 1-625)
chain: B2 chain with I453R
In the case of B3, the binding result in test [2] and in test [1] was “binds” throughout.
